Measured values: the supplement of paper PMC10849652
The list shows a part of the results.

By UniProt entry, the sequences of proteins in these tests, tags left out. Where a name states a change or a piece, a line headed by the entry shows the natural chain unless it says otherwise.
UniProt P38646: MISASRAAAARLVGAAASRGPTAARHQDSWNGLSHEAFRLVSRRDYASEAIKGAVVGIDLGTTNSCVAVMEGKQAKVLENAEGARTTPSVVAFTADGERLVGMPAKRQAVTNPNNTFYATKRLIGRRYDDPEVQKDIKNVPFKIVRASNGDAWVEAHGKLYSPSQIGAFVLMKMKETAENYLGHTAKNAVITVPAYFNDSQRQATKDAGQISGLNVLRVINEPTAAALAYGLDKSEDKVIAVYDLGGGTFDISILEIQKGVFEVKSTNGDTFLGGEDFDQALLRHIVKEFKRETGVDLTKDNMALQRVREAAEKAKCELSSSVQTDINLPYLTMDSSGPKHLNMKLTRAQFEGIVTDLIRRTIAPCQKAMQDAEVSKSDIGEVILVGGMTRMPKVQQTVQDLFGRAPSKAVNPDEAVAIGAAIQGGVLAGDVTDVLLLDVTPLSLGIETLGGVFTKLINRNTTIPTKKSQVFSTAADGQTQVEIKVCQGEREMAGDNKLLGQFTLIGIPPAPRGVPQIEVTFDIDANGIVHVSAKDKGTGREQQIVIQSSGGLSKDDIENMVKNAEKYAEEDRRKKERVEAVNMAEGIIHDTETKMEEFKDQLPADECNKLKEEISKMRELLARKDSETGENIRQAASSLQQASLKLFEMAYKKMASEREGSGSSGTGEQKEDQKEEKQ
UniProt Q58FG1, whole entry, looked up: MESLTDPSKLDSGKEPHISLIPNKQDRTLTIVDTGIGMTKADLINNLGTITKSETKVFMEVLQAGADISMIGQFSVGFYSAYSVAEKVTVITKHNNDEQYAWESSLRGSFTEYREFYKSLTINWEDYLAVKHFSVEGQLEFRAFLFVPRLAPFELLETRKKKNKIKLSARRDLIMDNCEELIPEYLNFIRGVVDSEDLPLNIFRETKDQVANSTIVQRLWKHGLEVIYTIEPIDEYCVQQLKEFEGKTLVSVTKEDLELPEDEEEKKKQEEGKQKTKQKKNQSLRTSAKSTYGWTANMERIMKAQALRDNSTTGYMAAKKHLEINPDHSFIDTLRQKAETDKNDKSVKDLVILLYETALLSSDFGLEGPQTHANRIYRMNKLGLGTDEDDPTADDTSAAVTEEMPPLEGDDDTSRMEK
UniProt Q8WVV9: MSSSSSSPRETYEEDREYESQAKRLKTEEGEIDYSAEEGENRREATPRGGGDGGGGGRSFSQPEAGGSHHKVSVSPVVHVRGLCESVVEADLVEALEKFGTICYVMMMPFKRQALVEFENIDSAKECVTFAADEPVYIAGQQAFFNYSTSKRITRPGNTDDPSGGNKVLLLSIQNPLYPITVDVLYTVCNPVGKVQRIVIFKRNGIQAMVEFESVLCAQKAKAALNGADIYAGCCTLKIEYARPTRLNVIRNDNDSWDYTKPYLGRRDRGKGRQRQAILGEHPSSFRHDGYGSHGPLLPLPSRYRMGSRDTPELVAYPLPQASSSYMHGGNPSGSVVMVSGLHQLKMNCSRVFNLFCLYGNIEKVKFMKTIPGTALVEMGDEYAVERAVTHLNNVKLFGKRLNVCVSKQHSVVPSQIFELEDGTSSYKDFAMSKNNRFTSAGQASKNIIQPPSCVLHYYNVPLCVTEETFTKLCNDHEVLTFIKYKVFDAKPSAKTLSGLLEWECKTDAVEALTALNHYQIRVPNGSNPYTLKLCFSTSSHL
UniProt P10809, whole entry, looked up: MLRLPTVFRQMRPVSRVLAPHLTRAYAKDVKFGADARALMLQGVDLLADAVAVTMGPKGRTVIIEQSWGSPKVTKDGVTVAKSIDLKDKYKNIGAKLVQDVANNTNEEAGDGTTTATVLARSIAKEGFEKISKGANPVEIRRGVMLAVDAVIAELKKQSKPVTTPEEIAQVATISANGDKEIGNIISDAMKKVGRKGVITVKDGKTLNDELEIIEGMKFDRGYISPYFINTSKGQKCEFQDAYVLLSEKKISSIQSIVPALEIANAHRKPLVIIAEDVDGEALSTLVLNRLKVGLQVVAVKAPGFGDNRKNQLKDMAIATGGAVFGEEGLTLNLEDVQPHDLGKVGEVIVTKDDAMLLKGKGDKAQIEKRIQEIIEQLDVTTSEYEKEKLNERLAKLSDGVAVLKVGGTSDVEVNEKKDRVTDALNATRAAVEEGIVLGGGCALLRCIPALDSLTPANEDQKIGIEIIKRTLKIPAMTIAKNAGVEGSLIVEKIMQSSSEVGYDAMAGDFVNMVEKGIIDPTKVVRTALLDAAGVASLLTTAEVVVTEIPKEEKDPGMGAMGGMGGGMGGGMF
UniProt P35914: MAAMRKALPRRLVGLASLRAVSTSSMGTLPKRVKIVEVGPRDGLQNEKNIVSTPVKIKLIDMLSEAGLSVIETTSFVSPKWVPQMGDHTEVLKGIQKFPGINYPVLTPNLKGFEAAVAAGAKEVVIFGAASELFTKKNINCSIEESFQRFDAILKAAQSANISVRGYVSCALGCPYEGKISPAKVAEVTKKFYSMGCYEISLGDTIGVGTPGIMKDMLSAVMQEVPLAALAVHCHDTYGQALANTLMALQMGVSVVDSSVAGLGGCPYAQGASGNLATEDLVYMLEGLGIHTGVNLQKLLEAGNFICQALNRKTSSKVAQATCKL
UniProt O15347: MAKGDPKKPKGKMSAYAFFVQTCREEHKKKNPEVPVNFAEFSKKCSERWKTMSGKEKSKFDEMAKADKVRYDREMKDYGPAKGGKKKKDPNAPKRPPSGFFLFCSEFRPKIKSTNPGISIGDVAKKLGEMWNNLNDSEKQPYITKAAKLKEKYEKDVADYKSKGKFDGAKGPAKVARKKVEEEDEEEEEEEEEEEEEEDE
UniProt Q53GQ0: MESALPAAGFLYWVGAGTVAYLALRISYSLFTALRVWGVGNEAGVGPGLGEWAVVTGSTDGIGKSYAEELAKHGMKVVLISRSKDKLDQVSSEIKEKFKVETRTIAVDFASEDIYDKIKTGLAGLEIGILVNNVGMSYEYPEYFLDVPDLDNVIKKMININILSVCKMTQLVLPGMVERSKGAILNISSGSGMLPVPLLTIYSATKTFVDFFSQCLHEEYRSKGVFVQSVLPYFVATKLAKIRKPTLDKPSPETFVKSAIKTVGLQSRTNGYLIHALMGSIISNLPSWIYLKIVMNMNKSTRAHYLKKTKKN
UniProt Q96JB3: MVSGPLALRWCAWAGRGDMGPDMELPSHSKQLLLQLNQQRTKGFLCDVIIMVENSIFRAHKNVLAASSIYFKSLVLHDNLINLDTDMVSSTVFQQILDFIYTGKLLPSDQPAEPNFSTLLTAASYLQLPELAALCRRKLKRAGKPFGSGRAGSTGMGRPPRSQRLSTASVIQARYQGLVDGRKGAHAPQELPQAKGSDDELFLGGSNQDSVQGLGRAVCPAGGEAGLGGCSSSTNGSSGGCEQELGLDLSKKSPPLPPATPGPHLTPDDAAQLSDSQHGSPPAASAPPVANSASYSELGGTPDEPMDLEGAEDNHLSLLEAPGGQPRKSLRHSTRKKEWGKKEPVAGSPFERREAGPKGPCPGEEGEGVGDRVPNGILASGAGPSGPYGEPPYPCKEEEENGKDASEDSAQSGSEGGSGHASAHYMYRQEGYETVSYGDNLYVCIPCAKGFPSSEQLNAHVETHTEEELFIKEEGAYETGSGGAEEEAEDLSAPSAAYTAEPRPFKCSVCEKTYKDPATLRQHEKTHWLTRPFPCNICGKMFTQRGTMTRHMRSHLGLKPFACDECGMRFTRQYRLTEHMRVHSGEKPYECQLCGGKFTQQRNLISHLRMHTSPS
UniProt P19367: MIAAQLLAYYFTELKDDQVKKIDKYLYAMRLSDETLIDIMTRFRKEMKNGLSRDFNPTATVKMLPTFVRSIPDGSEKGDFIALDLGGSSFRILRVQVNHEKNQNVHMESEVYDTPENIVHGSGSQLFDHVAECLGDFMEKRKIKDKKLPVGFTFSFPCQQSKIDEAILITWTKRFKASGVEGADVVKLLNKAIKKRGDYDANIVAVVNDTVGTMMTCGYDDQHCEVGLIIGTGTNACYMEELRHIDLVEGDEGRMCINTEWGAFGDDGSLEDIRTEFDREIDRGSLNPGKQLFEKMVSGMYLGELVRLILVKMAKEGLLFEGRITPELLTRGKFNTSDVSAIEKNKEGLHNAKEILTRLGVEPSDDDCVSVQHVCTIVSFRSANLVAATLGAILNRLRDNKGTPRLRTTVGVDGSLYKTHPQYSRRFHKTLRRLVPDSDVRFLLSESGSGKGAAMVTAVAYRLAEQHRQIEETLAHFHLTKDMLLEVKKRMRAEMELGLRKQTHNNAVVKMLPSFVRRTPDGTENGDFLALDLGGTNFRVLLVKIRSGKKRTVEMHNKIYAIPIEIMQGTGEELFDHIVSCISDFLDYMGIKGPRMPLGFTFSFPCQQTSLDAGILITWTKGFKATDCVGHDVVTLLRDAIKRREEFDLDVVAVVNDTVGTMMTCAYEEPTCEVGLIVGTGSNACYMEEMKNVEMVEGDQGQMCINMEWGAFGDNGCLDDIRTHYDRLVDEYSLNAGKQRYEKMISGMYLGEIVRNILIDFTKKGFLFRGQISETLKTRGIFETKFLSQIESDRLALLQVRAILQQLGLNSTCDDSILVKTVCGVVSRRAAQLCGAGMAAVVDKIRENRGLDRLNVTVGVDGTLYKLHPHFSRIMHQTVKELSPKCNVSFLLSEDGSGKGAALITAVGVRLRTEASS
UniProt Q14527: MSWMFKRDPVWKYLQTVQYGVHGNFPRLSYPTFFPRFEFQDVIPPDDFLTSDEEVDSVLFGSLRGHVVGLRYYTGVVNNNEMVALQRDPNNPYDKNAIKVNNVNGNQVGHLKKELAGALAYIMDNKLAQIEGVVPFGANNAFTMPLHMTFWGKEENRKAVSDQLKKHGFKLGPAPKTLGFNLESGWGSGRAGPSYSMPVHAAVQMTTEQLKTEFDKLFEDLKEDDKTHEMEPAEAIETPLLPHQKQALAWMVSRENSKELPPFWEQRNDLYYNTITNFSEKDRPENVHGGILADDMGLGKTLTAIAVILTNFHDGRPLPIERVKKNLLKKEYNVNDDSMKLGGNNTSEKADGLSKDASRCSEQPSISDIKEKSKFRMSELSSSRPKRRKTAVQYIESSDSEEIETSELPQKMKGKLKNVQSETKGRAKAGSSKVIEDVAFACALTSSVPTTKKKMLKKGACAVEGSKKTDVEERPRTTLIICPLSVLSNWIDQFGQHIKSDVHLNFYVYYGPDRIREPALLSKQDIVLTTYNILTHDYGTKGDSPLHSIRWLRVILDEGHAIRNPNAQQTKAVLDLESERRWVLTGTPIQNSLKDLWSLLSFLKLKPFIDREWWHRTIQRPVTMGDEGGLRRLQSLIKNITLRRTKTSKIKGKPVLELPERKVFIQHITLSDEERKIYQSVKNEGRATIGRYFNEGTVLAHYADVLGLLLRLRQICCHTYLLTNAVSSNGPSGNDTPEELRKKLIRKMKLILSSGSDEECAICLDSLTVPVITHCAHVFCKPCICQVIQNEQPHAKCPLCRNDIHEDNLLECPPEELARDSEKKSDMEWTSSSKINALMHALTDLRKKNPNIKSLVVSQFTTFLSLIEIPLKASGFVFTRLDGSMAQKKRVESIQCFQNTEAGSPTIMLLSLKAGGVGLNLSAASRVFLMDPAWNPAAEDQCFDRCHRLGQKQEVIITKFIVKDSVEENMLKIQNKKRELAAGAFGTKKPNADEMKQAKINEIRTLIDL
UniProt P00492: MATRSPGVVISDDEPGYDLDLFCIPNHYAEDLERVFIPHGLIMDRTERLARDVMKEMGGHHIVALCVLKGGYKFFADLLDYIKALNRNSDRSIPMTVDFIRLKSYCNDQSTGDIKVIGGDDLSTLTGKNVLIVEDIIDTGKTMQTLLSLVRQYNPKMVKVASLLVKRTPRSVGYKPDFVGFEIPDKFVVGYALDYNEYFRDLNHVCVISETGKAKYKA
UniProt P52597: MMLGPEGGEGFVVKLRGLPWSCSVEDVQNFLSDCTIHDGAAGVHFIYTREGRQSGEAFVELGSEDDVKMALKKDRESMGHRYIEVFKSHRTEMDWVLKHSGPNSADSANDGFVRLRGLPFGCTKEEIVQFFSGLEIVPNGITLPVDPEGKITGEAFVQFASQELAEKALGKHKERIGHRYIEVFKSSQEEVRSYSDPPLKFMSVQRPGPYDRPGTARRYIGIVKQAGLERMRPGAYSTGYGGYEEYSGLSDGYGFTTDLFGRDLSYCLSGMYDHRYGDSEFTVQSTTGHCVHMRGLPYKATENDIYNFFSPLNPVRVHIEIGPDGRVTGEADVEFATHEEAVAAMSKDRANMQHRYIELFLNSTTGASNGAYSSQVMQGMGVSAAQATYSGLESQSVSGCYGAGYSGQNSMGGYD
UniProt P31937: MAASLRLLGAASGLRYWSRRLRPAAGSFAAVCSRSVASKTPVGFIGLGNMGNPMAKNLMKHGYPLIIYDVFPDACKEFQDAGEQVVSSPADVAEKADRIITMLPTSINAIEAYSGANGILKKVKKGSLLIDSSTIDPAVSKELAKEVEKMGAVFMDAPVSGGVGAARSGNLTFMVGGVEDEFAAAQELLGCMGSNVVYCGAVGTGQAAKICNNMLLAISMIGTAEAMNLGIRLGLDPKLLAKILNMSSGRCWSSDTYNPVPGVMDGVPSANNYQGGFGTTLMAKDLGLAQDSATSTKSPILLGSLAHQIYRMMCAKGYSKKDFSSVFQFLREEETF

Compound: Cc1sc2c(c1C)C(c1ccc(Cl)cc1)=N[C@@H](CC(=O)OC(C)(C)C)c1nnc(C)n1-2
Experiment: log2 fold change, soluble protein after heating vs DMSO (PISA); higher = thermal stabilisation; K562 cells, 10 uM, 30 min; active = over 0.2 and 3.5 SD of the protein, either way, in both replicates (recomputed)
Outline: (§1)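 K562 cells at 2×10^6 cells/mL were treated for 30 min with 10 μM compound, and aliquots were heated for 3 min over 48°C-58°C before pooling. Extraction used PBS with 0.5% NP-40 at 4°C, and soluble protein was the supernatant after 21,000xg for 90 min, measured by TMTpro 16plex LC-MS/MS with channel sums equalised. Thermal stability values, relative to control samples and from duplicates, are log2 fold changes.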

Target | log2 fold change
HMGN5 (UniProt P82970) | inactive: -0.111
HTATSF1 (UniProt O43719) | inactive: 0.01
HMGN5 (UniProt Q5JSK9) | inactive: -0.003
HMGCR isoform 3 (UniProt P04035) | inactive: 0.111
HSPA9 (UniProt P38646) | inactive: -0.008
HSP90B1 (UniProt P14625) | inactive: -0.007
HSPA14 (UniProt Q0VDF9) | inactive: 0.062
HSPA13 (UniProt P48723) | inactive: -0.046
HIST2H2AA3 (UniProt Q6FI13) | inactive: -0.027
HMOX2 (UniProt P30519) | inactive: 0.047
HSP90AA4P (UniProt Q58FG1) | inactive: 0.109
HSPA4 (UniProt P34932) | inactive: -0.012
HNRNPLL (UniProt Q8WVV9) | inactive: -0.098
HYOU1, A0A494C039 | inactive: -0.012
HSPD1 (UniProt P10809) | inactive: -0.001
HMGCL (UniProt P35914) | inactive: -0.005
HNRNPDL (UniProt O14979) | inactive: 0.157
HMGB3 (UniProt O15347) | inactive: -0.055
HSD17B12 (UniProt Q53GQ0) | inactive: 0.042
HKDC1 (UniProt Q2TB90) | inactive: -0.033
HIC2 (UniProt Q96JB3) | inactive: 0.205
HK1 isoform 2 (UniProt P19367) | inactive: -0.024
HLTF (UniProt Q14527) | inactive: 0
HMGA1 (UniProt P17096) | inactive: 0.102
HSPA1L (UniProt P34931) | inactive: -0.189
HPRT1 (UniProt P00492) | inactive: -0.008
HSD17B10 (UniProt Q99714) | inactive: -0.012
HNRNPF (UniProt P52597) | inactive: -0.02
HSPA8 (UniProt E9PN89) | inactive: 0.133
HIBADH (UniProt P31937) | inactive: 0.007

Compound: c1ccc([C@@H]2C[C@H]2NC2CCNCC2)cc1
Experiment: as above
Outline: as §1

Target | log2 fold change
ICE2 (UniProt Q659A1) | inactive: 0
HMGN5 (UniProt P82970) | inactive: 0.036
HTATSF1 (UniProt O43719) | inactive: 0.029
HMGN5 (UniProt Q5JSK9) | inactive: 0.055
HMGCR isoform 3 (UniProt P04035) | inactive: 0.043
HSPA9 (UniProt P38646) | inactive: 0.023
HSP90B1 (UniProt P14625) | inactive: -0.013
HSPA14 (UniProt Q0VDF9) | inactive: -0.024
HSPA13 (UniProt P48723) | inactive: -0.022
HIST2H2AA3 (UniProt Q6FI13) | inactive: 0.286
HMOX2 (UniProt P30519) | inactive: -0.036
HSP90AA4P (UniProt Q58FG1) | inactive: 0.004
HSPA4 (UniProt P34932) | inactive: 0.002
HNRNPLL (UniProt Q8WVV9) | inactive: -0.015
HYOU1, A0A494C039 | inactive: 0.117
HSPD1 (UniProt P10809) | inactive: 0.021

Target | log2 fold change
HS1BP3 (UniProt Q53T59) | inactive: -0.203
HMGCL (UniProt P35914) | inactive: -0.035
HNRNPDL (UniProt O14979) | inactive: 0.106
HMGB3 (UniProt O15347) | inactive: -0.033
HSD17B12 (UniProt Q53GQ0) | inactive: -0.008
HKDC1 (UniProt Q2TB90) | inactive: -0.02
HIC2 (UniProt Q96JB3) | inactive: 0.078
HK1 isoform 2 (UniProt P19367) | inactive: 0.007
HLTF (UniProt Q14527) | inactive: -0.001
HMGA1 (UniProt P17096) | inactive: 0.097
HSPA1L (UniProt P34931) | inactive: 0.079
HPRT1 (UniProt P00492) | inactive: 0.012
HSD17B10 (UniProt Q99714) | inactive: -0.025
HNRNPF (UniProt P52597) | inactive: -0.017
HSPA8 (UniProt E9PN89) | inactive: 0.104
HIBADH (UniProt P31937) | inactive: 0.008
